In patent US20140271734A1, “BILE ACID RECYCLING INHIBITORS FOR TREATMENT OF BARRETT'S ESOPHAGUS AND GASTROESOPHAGEAL REFLUX DISEASE” (LUMENA PHARMACEUTICALS, INC., priority 2013, published 2014):
Some of these results come from one statement about several compounds together.

System: fecal bile acids
Experiment: 24 hour fecal bile acids in ZDF rats, LUM002 and SC-435
Format: in vivo
Details: twice daily oral gavage; Day 10

CCCCC1(CCCC)CS(=O)(=O)c2ccc(N(C)C)cc2[C@@H](c2ccc(OCCCC[N+]34CCN(CC3)CC4)cc2)[C@H]1O.CS(=O)(=O)[O-] [SC-435, 1-[4-[4-[(4R,5R)-3,3-dibutyl-7-(dimethylamino)-2,3,4,5-tetrahydro-4-hydroxy-1,1-dioxido-1-benzothiepin-5-yl]phenoxy]butyl]4-aza-1-azoniabicyclo[2.2.2]octane methanesulfonate salt, reference compound]
Increase in 24 h total fecal BA concentration compared with vehicle-treated rats (statistically significant): up to 4 fold
